# From article PMC5682285
# Sequences of proteins named here, by UniProt entry; tags and fusion partners are left off.
# UniProt Q14671: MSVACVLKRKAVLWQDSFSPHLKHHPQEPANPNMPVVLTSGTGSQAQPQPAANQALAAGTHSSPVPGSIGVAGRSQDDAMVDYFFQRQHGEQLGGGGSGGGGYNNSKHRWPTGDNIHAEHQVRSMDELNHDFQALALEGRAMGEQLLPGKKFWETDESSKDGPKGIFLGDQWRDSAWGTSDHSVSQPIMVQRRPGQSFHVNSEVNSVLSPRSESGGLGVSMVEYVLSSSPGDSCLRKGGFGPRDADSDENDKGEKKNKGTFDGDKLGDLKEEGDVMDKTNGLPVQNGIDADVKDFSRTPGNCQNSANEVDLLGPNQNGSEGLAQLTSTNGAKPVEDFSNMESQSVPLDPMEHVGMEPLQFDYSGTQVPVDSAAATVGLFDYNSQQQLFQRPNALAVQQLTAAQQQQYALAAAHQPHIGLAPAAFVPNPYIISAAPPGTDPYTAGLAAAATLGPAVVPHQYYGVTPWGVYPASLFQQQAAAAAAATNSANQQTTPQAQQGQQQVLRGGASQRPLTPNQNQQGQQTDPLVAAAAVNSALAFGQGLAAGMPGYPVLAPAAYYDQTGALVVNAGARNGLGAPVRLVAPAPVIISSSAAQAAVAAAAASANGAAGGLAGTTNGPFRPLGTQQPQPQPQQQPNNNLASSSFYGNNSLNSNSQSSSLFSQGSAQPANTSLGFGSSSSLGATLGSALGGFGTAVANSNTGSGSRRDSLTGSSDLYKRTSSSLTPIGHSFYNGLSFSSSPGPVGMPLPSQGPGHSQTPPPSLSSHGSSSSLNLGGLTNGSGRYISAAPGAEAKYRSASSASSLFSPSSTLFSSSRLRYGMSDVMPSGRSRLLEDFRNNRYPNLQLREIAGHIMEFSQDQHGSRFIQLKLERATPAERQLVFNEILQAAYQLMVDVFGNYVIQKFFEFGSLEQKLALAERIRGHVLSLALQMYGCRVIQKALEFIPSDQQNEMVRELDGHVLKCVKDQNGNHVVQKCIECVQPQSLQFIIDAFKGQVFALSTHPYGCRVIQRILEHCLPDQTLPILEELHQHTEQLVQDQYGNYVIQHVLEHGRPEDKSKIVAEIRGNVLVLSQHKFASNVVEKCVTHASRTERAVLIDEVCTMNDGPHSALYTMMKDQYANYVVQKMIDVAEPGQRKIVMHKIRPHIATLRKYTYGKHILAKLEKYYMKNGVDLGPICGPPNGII
# Target: T1, CSDE1 (cold shock domain containing E1) (human (endogenous in hESCs)) (UniProt O75534)
# T1 sequence: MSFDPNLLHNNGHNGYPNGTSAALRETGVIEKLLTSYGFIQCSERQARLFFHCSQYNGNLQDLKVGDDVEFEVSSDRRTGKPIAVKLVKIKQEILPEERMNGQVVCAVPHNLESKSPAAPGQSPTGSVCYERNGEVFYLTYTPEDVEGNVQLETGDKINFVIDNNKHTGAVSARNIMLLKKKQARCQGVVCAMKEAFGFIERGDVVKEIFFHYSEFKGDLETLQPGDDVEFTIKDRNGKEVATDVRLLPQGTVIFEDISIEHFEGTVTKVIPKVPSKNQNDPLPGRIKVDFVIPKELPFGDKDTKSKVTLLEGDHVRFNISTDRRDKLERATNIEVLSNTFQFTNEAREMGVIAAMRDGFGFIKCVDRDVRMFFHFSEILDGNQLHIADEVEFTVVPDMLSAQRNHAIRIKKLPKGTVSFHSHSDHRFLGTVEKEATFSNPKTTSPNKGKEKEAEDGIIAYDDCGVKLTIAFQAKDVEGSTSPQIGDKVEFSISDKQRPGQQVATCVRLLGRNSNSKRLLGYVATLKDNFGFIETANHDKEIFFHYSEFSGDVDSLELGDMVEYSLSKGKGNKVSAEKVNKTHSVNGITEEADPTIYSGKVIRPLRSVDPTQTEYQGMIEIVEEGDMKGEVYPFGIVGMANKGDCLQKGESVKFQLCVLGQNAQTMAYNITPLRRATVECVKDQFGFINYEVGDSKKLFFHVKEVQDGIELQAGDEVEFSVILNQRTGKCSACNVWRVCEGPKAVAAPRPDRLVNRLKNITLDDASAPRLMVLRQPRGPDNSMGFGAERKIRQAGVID
# Assay: affinity purification with mass spectrometry; endogenous CSDE1 immunoprecipitated from hESC lysate (modified RIPA buffer: 50 mM Tris-HCl pH 7.4, 150 mM NaCl, 1% IgPal, 0.25% sodium deoxycholate, 1 mM EDTA) with anti-CSDE1 antibody and Protein A beads at 4 °C; anti-FLAG antibody as control; in-column tryptic digestion, single shot label-free proteomics (MaxQuant, Perseus)
substance,measurement,value
Pumilio homolog 1 (PUM1) (from UniProt Q14671 1-1186),binding,binds

# No constants are given. Whether binding was seen depends on the method and setting. In cells and extracts the contact can be indirect. These calls come from enrichment with a bait or labelling near it, and not all partners need be listed.
